Measured values from patent US20040018253A1, “Use of CYP2D6 inhibitors in combination therapies” (priority 1999, published 2004).
Some entries of the source have several records that differ or are many. Only these are listed. There may be further records. Values given together do not match, cause unknown; they may come from other doses, times, organisms or constructs than stated.

Assay: Human pharmacokinetics of CYP2D6 substrates (half-life, oral bioavailability, hepatic extraction)

With `O=C1CCC(=O)N1C[C@H]1CC[C@H]2CN(c3ncccn3)CCN2C1` [sunipetron, (7S,9S)-2-(2-pyrimidyl)-7-(succinamidomethyl)-prehydro-1H-pyrido-[1,2-a]pyrazine] as the compound, how does the human half-life read?
Its human half-life is “about 1 hours and 1.1 hours”.
